From the supplement of paper PMC12823440, “Inhibitors supercharge kinase turnover through native proteolytic circuits” (Nature, 2025)
The list shows a part of the results. The calls rarely recur for the same compound in another form.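 Kinases, fused to nanoluciferase, were expressed in K562 cells; luminescence was measured every 4 h from 2 to 18 h as percent of control (DMSO = 100%, positive control = 0%). A time point is decreased if signal falls significantly (2 sigma). Hits were called by the authors by a rule that is not shown; the count of time points alone does not decide it.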

Chains of the proteins cited; added tags and fusions are not shown. Lines headed by an entry give the natural chain unless they say otherwise; changes in a name come on top.
UniProt P07949, whole entry, looked up: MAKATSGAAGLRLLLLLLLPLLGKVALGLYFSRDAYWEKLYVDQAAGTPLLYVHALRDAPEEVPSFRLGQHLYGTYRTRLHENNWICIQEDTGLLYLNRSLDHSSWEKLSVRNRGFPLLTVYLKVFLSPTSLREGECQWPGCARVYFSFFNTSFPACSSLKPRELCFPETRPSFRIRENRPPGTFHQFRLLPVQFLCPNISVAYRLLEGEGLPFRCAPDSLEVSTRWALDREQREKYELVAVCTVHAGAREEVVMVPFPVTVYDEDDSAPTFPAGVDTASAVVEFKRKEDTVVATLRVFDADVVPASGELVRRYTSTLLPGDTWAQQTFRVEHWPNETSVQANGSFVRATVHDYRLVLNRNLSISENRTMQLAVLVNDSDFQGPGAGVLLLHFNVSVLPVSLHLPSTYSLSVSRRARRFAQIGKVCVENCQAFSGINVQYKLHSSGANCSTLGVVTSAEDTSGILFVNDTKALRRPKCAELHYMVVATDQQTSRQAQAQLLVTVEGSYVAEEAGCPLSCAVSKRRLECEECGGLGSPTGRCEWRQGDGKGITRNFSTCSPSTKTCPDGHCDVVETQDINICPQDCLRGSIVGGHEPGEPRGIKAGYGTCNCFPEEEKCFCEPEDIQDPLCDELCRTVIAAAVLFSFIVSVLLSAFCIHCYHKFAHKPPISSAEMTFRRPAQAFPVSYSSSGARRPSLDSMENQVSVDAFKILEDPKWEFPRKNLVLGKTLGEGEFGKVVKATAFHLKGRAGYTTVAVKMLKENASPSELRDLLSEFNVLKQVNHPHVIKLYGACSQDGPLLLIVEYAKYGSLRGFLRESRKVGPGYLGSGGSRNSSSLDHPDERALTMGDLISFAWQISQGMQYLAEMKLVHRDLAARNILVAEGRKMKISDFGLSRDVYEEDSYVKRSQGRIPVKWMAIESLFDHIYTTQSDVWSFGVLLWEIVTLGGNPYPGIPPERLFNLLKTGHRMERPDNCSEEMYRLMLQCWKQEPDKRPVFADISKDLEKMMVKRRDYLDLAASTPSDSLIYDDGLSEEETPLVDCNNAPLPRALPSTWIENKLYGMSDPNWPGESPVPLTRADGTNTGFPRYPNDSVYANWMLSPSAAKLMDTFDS
UniProt P07949, whole entry M918T, looked up: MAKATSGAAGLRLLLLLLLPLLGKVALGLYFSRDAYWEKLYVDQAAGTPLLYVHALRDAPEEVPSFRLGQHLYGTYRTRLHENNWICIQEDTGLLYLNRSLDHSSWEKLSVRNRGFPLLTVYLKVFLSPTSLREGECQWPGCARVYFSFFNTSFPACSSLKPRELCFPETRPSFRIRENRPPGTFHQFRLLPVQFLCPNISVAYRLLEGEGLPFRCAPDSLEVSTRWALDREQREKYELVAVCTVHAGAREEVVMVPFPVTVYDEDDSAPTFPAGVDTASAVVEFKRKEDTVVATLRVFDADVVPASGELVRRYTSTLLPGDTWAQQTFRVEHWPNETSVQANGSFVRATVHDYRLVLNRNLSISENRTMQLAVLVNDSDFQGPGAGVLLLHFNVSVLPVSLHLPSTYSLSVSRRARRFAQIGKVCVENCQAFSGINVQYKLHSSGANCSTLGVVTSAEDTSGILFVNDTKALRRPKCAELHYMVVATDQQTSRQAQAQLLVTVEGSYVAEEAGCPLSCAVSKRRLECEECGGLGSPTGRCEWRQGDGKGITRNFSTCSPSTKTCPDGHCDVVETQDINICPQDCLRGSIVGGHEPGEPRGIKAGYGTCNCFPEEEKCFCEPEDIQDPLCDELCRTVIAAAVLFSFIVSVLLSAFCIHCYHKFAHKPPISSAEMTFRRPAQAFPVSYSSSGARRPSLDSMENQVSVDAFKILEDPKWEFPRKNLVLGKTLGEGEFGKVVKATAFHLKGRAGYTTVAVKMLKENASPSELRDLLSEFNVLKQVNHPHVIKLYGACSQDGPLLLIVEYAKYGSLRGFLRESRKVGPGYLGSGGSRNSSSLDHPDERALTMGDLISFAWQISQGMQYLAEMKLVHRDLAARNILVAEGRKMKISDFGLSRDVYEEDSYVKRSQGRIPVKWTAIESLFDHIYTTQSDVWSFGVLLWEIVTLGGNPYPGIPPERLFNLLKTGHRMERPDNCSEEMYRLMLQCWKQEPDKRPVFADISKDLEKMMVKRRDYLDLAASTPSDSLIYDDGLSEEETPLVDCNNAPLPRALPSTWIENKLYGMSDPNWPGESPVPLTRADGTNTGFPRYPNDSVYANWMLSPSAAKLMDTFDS
UniProt Q9BRS2: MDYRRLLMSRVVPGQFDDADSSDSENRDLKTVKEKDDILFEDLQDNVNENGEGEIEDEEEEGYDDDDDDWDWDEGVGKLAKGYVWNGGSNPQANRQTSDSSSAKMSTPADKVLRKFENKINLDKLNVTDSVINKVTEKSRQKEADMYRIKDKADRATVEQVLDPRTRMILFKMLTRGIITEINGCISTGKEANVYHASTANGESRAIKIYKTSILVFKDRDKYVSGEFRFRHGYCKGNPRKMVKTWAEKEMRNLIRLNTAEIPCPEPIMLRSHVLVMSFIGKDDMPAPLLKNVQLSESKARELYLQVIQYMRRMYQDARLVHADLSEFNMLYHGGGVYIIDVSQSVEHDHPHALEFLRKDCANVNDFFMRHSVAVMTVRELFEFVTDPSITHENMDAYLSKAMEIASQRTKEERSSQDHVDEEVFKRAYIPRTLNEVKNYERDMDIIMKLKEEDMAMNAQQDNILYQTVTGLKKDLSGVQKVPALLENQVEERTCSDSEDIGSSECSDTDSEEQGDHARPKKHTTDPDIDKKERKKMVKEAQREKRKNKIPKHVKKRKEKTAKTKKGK
UniProt Q13546: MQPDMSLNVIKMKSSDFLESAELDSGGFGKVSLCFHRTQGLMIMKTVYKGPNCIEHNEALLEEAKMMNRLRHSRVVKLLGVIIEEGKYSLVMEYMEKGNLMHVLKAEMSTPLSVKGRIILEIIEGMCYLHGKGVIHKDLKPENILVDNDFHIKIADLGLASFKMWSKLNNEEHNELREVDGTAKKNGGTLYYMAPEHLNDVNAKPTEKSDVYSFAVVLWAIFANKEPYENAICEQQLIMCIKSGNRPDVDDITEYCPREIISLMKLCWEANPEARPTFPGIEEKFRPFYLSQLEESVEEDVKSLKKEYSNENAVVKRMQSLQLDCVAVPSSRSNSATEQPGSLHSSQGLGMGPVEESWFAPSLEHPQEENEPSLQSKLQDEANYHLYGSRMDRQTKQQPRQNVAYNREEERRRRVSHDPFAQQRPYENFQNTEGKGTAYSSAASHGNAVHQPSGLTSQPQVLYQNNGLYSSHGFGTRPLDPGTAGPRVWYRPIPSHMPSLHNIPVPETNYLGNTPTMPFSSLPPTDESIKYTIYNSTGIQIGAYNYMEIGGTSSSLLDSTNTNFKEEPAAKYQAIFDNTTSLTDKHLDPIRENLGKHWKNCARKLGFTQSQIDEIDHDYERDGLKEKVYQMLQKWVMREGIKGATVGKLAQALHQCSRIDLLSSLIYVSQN
UniProt Q01974, whole entry: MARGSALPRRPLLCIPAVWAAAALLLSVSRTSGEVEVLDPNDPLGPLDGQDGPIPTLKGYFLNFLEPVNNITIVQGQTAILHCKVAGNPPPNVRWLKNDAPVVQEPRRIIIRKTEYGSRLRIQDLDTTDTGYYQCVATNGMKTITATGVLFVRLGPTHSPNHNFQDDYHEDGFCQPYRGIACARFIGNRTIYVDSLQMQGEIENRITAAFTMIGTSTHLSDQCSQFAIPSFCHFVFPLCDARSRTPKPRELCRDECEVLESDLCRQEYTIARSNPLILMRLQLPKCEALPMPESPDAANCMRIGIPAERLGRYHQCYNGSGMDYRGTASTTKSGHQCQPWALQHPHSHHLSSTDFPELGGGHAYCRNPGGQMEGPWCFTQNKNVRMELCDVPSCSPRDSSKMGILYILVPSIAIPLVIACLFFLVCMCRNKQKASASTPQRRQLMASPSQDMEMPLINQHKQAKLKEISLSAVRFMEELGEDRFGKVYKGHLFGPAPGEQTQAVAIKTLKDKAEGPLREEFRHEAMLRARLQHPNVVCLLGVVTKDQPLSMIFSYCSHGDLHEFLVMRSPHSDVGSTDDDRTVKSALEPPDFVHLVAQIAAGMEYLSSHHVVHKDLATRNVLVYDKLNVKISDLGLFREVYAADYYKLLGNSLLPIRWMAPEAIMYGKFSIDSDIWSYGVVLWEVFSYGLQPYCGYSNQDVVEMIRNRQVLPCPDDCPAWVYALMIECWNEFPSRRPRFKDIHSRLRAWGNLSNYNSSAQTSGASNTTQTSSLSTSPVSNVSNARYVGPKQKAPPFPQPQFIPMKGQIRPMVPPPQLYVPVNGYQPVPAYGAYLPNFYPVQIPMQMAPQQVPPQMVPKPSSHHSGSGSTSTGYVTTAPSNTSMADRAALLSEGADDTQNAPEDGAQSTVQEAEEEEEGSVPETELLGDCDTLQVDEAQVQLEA
UniProt Q15418, whole entry: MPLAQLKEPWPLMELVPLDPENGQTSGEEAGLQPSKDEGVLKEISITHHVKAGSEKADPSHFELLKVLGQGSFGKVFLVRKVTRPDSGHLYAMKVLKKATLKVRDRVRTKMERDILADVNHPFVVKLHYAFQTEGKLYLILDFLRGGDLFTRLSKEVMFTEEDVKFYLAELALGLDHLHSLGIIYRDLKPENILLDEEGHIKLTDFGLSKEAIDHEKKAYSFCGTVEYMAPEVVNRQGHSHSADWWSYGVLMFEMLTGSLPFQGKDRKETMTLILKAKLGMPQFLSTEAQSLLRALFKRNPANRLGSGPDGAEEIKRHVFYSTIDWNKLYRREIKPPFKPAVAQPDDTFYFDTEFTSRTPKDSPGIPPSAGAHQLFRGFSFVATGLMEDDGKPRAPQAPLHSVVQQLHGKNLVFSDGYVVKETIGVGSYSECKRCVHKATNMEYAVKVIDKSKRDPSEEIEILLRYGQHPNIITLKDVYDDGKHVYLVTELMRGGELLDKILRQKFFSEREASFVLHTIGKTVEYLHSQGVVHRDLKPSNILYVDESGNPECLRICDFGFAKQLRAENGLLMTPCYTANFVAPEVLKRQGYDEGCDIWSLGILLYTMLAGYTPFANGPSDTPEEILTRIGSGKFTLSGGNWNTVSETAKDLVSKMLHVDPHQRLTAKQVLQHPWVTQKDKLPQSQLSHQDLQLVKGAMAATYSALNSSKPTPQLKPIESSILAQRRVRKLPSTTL
UniProt Q9NYA1, whole entry: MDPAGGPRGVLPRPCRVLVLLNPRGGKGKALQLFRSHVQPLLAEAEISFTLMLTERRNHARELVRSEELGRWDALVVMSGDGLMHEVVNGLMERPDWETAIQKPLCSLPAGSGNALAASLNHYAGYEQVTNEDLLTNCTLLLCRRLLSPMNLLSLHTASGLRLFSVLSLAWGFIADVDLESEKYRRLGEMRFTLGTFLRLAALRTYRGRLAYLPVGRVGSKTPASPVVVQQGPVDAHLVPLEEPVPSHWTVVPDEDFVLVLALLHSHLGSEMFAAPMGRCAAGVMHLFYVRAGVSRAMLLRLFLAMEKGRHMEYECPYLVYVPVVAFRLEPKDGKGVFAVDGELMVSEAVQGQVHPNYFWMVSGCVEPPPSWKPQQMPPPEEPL
UniProt Q9Y6E0: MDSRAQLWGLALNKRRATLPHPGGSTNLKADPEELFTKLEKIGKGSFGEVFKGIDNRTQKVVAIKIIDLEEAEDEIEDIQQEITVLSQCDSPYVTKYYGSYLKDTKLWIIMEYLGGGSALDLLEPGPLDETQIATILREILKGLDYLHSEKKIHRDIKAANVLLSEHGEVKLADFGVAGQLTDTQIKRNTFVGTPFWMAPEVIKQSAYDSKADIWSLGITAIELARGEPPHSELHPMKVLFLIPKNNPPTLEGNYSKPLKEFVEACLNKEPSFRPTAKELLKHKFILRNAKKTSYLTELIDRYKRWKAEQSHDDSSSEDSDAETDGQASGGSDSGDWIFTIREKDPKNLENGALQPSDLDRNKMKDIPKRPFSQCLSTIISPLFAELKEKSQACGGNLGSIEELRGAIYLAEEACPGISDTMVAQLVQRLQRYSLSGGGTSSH

Experiments:
Experiment in all cases: kinase-Nluc reporter destabilization hit call (1 = scored as downregulated) (binary); higher = compound decreases kinase abundance
Conditions in all cases: K562; 2-18 h
RET = RET (UniProt P07949)
[1] = molecular target: RET_M918T (clone: RET_mut) (UniProt P07949)
RIOK1 = RIOK1 (UniProt Q9BRS2)
RIPK1 = RIPK1 (UniProt Q13546)
RIPK2 = RIPK2 (UniProt O43353)
ROR2 = ROR2 (UniProt Q01974)
RPS6KA1 = RPS6KA1 (UniProt Q15418)
SPHK1 = SPHK1 (UniProt Q9NYA1)
SRC = SRC (UniProt P12931)
STK24 = STK24 (UniProt Q9Y6E0)

Measured: kinase-Nluc reporter destabilization hit call

Cn1c(=O)c2c(nc(S(C)(=O)=O)n2C)n(CC#Cc2cccc(O)c2)c1=O (2.5 µM)
inactive: RET 0 | [1] 0 | RIOK1 = 0 | RIPK1 = 0 | RIPK2 = 0 | ROR2 = 0 | RPS6KA1 = 0 | SPHK1 = 0 | SRC 0 | STK24 = 0

O=C(Nc1cccc(-c2nc(-c3ccc(NC(=O)c4cccnc4)cc3Cl)no2)c1)Nc1ccc(NC(=O)C2CC2)c(C(F)(F)F)c1 (2.5 µM)
inactive: RET 0 | [1] 0 | RIOK1 = 0 | RIPK1 = 0 | RIPK2 = 0 | ROR2 = 0 | RPS6KA1 = 0 | SPHK1 = 0 | SRC 0 | STK24 = 0

N#Cc1cnc2c(Cl)cc(NCc3cn(CCN4CCCCCC4)nn3)cc2c1Nc1ccc(F)c(Cl)c1 [Cot inhibitor-1] (10 µM)
inactive: RET 0 | [1] 0 | RIOK1 = 0 | RIPK1 = 0 | RIPK2 = 0 | ROR2 = 0 | RPS6KA1 = 0 | SPHK1 = 0 | SRC 0 | STK24 = 0

CC(C)n1c(=O)n(C)c2cnc3cc(F)c(-c4ccc(OCCCN5CCCCC5)nc4)cc3c21 (10 µM)
inactive: RET 0 | [1] 0 | RIOK1 = 0 | RIPK1 = 0 | RIPK2 = 0 | ROR2 = 0 | RPS6KA1 = 0 | SPHK1 = 0 | SRC 0 | STK24 = 0

CC(C)Oc1ccc(F)c(-c2cnc(N)c(C(=O)Nc3cnccc3N3CCC[C@@H](C(=O)O)C3)n2)c1 (2 µM)
inactive: RET 0 | [1] 0 | RIOK1 = 0 | RIPK1 = 0 | RIPK2 = 0 | ROR2 = 0 | RPS6KA1 = 0 | SPHK1 = 0 | SRC 0 | STK24 = 0
